Assay results: the supplement of paper PMC7666118
The list shows a part of the results.

Chains of the proteins cited; added tags and fusions are not shown. Lines headed by an entry give the natural chain unless they say otherwise; changes in a name come on top.
UniProt Q8TBC3: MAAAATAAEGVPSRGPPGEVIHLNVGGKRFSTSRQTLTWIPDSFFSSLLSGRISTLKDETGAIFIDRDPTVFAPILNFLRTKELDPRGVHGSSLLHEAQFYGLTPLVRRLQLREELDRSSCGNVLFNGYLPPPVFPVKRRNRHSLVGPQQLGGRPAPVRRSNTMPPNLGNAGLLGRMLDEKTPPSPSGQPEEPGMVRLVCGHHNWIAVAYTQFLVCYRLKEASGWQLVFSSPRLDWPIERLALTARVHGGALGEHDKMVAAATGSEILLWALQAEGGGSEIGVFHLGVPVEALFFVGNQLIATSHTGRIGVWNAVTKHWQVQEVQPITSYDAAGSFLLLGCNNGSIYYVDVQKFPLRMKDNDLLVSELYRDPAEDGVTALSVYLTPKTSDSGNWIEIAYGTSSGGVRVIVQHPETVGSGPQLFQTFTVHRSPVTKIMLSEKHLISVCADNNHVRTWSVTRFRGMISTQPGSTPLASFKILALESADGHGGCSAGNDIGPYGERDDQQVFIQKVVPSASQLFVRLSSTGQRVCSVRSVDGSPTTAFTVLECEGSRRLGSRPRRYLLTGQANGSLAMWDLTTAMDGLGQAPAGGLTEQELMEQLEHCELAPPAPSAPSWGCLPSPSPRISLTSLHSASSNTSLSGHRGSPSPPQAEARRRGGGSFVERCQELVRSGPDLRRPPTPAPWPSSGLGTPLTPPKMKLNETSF
UniProt Q9UGH3: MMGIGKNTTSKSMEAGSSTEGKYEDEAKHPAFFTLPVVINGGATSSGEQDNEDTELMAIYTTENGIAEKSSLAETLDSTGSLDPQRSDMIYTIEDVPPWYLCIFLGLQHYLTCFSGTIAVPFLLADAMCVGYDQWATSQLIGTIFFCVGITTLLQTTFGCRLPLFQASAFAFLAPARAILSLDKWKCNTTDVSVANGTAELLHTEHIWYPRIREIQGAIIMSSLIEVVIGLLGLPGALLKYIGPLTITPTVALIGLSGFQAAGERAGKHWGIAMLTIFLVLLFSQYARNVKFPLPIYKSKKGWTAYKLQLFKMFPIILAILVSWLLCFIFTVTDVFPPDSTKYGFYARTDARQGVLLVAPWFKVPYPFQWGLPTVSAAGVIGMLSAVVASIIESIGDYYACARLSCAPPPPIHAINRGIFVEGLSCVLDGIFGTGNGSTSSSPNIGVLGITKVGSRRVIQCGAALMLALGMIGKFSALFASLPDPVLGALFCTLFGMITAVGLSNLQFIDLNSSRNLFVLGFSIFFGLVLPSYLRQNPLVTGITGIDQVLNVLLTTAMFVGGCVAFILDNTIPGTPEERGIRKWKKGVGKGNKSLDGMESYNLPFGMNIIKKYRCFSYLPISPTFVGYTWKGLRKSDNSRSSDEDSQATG
UniProt Q8TBK2: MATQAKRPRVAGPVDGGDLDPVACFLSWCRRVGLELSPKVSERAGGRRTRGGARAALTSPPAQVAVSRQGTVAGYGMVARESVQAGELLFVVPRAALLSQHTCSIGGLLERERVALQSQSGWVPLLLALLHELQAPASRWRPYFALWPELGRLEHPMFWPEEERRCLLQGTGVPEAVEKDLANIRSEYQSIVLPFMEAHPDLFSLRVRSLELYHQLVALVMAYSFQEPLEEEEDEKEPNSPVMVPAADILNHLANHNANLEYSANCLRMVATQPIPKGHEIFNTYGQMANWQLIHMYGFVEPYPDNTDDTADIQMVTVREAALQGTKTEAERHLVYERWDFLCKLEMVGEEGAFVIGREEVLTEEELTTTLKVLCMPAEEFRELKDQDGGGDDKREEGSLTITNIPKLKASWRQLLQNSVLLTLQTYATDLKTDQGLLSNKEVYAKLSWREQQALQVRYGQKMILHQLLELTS
UniProt O95248: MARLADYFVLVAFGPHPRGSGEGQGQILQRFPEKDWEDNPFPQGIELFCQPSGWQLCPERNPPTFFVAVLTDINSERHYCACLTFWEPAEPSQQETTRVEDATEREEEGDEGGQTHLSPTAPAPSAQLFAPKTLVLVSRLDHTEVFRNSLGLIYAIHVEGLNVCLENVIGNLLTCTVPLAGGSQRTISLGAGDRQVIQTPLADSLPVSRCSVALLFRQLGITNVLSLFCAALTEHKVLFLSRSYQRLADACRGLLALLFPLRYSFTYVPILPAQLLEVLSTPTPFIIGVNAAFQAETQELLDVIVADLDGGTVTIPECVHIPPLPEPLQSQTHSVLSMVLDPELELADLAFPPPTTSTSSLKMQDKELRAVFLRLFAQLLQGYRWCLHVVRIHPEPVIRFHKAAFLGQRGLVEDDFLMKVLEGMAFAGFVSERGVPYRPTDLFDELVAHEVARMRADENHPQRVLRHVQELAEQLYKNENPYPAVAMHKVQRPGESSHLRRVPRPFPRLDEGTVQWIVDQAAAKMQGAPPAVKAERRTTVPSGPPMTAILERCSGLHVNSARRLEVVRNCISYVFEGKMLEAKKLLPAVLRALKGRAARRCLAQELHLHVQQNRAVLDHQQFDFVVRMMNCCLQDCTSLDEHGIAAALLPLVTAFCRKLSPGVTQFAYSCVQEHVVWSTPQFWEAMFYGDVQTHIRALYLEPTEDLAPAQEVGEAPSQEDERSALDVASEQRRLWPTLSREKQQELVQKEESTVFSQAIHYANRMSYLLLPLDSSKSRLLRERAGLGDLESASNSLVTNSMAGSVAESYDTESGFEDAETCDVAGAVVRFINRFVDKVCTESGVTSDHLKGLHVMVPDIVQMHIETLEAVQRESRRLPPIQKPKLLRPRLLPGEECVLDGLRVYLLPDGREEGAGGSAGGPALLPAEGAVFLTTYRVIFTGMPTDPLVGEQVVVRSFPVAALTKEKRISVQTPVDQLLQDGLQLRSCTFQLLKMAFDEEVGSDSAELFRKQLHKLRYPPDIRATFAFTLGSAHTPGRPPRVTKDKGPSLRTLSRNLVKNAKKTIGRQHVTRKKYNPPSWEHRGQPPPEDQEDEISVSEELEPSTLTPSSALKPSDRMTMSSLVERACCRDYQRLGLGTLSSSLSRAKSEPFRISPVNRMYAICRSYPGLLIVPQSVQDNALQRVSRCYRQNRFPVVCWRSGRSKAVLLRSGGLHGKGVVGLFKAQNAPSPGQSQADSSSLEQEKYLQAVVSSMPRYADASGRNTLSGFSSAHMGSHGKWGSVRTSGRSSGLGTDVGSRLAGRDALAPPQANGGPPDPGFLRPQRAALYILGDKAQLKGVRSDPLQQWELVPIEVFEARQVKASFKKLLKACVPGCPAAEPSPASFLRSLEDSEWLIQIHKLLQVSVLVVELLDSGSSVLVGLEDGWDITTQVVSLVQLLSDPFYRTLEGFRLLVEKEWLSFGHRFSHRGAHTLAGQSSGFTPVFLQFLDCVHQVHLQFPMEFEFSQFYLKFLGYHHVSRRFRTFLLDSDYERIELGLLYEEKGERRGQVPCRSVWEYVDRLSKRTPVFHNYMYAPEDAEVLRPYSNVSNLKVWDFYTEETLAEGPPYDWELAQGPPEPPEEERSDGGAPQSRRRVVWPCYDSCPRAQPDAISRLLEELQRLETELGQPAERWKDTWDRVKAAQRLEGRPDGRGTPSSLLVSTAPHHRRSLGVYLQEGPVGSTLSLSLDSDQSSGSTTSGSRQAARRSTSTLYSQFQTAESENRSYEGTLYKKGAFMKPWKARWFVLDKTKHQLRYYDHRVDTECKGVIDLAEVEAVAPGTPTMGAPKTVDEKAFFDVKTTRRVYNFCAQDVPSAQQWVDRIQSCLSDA
UniProt Q9BWM7: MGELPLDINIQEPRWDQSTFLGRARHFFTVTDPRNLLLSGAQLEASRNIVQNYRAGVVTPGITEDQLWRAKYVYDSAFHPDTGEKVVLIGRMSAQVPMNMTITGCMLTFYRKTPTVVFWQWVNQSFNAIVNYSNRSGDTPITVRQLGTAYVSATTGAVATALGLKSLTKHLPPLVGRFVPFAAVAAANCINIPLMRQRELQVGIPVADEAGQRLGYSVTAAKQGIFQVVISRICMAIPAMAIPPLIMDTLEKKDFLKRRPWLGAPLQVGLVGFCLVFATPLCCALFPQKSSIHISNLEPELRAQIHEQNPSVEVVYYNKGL
UniProt O43290: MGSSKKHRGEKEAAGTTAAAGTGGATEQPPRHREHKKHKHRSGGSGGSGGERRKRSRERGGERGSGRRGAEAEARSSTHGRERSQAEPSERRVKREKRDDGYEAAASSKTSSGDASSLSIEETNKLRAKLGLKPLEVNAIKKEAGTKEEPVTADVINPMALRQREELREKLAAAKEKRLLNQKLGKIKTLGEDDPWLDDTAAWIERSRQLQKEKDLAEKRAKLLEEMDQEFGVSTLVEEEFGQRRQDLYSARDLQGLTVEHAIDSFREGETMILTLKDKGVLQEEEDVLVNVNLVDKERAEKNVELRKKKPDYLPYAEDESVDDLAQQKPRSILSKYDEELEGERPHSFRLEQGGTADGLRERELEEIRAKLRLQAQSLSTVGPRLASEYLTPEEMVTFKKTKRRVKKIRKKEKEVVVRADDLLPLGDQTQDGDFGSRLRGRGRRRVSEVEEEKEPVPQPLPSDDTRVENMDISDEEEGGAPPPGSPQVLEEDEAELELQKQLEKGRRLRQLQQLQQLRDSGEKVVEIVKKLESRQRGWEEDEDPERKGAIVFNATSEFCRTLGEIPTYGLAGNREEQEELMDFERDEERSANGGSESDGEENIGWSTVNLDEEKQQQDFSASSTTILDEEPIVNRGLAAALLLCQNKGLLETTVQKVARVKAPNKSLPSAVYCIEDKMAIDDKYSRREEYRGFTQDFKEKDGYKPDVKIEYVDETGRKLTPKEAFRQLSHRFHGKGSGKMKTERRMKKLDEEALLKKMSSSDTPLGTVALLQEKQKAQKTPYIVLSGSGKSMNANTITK
UniProt P07093: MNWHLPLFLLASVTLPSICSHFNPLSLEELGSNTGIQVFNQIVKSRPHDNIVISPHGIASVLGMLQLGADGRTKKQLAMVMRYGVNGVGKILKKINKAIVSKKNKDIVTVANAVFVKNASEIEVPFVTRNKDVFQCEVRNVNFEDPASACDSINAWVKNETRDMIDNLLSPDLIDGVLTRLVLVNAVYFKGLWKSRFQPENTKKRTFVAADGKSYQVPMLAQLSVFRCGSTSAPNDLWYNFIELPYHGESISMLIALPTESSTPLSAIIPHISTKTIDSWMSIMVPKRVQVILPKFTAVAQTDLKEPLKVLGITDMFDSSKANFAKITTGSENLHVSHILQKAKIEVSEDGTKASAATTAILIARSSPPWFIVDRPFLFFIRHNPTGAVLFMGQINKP
UniProt Q86SK9: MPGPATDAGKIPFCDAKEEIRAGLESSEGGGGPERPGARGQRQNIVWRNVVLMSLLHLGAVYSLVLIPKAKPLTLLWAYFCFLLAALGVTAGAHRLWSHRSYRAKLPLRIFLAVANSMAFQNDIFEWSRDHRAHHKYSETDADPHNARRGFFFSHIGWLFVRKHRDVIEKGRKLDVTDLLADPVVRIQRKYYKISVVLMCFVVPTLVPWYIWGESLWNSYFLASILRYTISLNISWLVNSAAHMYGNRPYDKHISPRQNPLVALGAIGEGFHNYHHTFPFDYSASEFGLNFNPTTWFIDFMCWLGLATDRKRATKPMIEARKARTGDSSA
UniProt P42285: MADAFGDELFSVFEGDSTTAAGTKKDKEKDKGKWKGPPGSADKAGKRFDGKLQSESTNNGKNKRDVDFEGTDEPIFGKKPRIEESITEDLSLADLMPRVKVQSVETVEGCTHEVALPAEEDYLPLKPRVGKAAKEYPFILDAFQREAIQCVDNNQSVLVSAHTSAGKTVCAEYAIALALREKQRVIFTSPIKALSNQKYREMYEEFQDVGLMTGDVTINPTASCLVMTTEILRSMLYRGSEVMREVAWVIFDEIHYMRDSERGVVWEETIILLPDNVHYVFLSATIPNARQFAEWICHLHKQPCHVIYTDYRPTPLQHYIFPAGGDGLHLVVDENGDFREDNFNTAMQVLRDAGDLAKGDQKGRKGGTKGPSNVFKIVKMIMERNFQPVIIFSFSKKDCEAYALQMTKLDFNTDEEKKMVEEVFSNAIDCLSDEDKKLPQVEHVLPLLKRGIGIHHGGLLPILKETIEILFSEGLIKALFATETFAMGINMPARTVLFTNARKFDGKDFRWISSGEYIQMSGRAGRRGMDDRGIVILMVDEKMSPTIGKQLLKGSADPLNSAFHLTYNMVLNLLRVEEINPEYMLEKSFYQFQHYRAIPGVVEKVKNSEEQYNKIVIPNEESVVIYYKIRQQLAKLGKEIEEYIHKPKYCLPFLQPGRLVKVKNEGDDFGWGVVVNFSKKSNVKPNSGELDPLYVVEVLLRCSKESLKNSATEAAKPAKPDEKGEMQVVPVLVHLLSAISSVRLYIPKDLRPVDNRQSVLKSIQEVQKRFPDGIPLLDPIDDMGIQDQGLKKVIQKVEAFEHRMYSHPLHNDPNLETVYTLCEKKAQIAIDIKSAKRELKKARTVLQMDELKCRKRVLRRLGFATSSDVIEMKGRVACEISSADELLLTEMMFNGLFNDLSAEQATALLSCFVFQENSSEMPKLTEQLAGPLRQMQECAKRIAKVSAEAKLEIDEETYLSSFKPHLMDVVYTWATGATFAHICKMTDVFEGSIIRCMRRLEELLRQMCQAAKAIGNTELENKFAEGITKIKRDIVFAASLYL

Compound: COc1ccc(Cn2ccc3ccc(C(=O)NO)cc32)cc1
Assay: dose-dependent thermal stabilisation call (2D-TPP, DLPTP, 10% FDR) (binary (1 = stabilised)); higher = stabilised by the compound
Details: system: HL-60 intact cells; concentration range 0.04-10 µM

| Target | dose-dependent thermal stabilisation call |
| --- | --- |
| SHKBP1 (UniProt Q8TBC3) | inactive: 0 |
| SIAH1 (UniProt Q8IUQ4) | inactive: 0 |
| SEMA4D (UniProt Q92854) | inactive: 0 |
| SLC19A1 (UniProt P41440) | inactive: 0 |
| SLC23A2 (UniProt Q9UGH3) | inactive: 0 |
| SLC6A9 (UniProt P48067) | inactive: 0 |
| SEC11A (UniProt P67812) | inactive: 0 |
| SETD6 (UniProt Q8TBK2) | inactive: 0 |
| SLC35D1 (UniProt Q9NTN3) | inactive: 0 |
| SLAIN2 (UniProt Q9P270) | inactive: 0 |
| SDF2L1 (UniProt Q9HCN8) | inactive: 0 |
| SBF1 (UniProt O95248) | inactive: 0 |
| SKAP2 (UniProt O75563) | inactive: 0 |
| SLC25A25 (UniProt Q6KCM7) | inactive: 0 |
| SCO1 (UniProt O75880) | inactive: 0 |
| SLC30A7 (UniProt Q8NEW0) | inactive: 0 |
| SLC39A7 (UniProt Q92504) | inactive: 0 |
| SENP8 (UniProt Q96LD8) | inactive: 0 |
| SATB2 (UniProt Q9UPW6) | inactive: 0 |
| SEPHS2 (UniProt Q99611) | inactive: 0 |
| SIRT5 (UniProt Q9NXA8) | inactive: 0 |
| SCPEP1 (UniProt Q9HB40) | inactive: 0 |
| SCAPER (UniProt Q9BY12) | inactive: 0 |
| SFXN3 (UniProt Q9BWM7) | inactive: 0 |
| SEPT8 (UniProt Q92599) | inactive: 0 |

| Target | dose-dependent thermal stabilisation call |
| --- | --- |
| SLC2A3 (UniProt P11169) | inactive: 0 |
| SART1 (UniProt O43290) | inactive: 0 |
| SLC24A6 (UniProt Q6J4K2) | inactive: 0 |
| SELK (UniProt Q9Y6D0) | inactive: 0 |
| SLC35A3 (UniProt Q9Y2D2) | inactive: 0 |
| SETDB1 (UniProt Q15047) | inactive: 0 |
| SLC43A3 (UniProt Q8NBI5) | inactive: 0 |
| SLC35A1 (UniProt P78382) | inactive: 0 |
| SLC25A15 (UniProt Q9Y619) | inactive: 0 |
| SCNM1 (UniProt Q9BWG6) | inactive: 0 |
| SIN3A (UniProt Q96ST3) | inactive: 0 |
| SF3A1 (UniProt Q15459) | inactive: 0 |
| SIP1 | inactive: 0 |
| SLBP (UniProt Q14493) | inactive: 0 |
| SEC62 (UniProt Q99442) | inactive: 0 |
| SART3 (UniProt Q15020) | inactive: 0 |
| SEC23A (UniProt Q15436) | inactive: 0 |
| SLC25A26 (UniProt Q70HW3) | inactive: 0 |
| SIGMAR1 (UniProt Q99720) | inactive: 0 |
| SERPINE2 (UniProt P07093) | inactive: 0 |
| SESN2 (UniProt P58004) | inactive: 0 |
| SEP15 (UniProt O60613) | inactive: 0 |
| SEPT6 (UniProt Q14141) | inactive: 0 |
| SERINC1 (UniProt Q9NRX5) | inactive: 0 |
| SF3B3 (UniProt Q15393) | inactive: 0 |

As entered above.
Under dose-dependent thermal stabilisation call, SLC35A1 (UniProt P78382) has inactive: 0
Under dose-dependent thermal stabilisation call, SIP1 has inactive: 0
Under dose-dependent thermal stabilisation call, SERINC1 (UniProt Q9NRX5) has inactive: 0

(list continues)

| Target | dose-dependent thermal stabilisation call |
| --- | --- |
| SFRS14 (UniProt Q8IX01) | inactive: 0 |
| SEC31A (UniProt O94979) | inactive: 0 |
| SCD5 (UniProt Q86SK9) | inactive: 0 |
| SAR1B (UniProt Q9Y6B6) | inactive: 0 |
| SCLY (UniProt Q96I15) | inactive: 0 |
| SFRS5 (UniProt Q13243) | inactive: 0 |
| SERPINB10 (UniProt P48595) | inactive: 0 |
| SKIV2L2 (UniProt P42285) | inactive: 0 |
| SLC25A32 (UniProt Q9H2D1) | inactive: 0 |
| SH3GL1 (UniProt Q99961) | inactive: 0 |
| SAR1A (UniProt Q9NR31) | inactive: 0 |
| SLC26A6 (UniProt Q9BXS9) | inactive: 0 |
| SFRS11 (UniProt Q05519) | inactive: 0 |
| SECISBP2 (UniProt Q96T21) | inactive: 0 |
| SEH1L (UniProt Q96EE3) | inactive: 0 |
| SELS (UniProt Q9BQE4) | inactive: 0 |
| SGPL1 (UniProt O95470) | inactive: 0 |
| SFRS8 (UniProt Q12872) | inactive: 0 |
| SLC31A1 (UniProt O15431) | inactive: 0 |
| SLC38A9 (UniProt Q8NBW4) | inactive: 0 |
| SLC15A4 (UniProt Q8N697) | inactive: 0 |
| SEPT2 (UniProt Q15019) | inactive: 0 |
| SHQ1 (UniProt Q6PI26) | inactive: 0 |
| SEC13 (UniProt P55735) | inactive: 0 |
